From PMC8842155 come the findings set out here.

Protein sequences, listed by entry. Tags and fused reporters are not part of them. Residues count along the entry.
UniProt P23818, residues 19-907: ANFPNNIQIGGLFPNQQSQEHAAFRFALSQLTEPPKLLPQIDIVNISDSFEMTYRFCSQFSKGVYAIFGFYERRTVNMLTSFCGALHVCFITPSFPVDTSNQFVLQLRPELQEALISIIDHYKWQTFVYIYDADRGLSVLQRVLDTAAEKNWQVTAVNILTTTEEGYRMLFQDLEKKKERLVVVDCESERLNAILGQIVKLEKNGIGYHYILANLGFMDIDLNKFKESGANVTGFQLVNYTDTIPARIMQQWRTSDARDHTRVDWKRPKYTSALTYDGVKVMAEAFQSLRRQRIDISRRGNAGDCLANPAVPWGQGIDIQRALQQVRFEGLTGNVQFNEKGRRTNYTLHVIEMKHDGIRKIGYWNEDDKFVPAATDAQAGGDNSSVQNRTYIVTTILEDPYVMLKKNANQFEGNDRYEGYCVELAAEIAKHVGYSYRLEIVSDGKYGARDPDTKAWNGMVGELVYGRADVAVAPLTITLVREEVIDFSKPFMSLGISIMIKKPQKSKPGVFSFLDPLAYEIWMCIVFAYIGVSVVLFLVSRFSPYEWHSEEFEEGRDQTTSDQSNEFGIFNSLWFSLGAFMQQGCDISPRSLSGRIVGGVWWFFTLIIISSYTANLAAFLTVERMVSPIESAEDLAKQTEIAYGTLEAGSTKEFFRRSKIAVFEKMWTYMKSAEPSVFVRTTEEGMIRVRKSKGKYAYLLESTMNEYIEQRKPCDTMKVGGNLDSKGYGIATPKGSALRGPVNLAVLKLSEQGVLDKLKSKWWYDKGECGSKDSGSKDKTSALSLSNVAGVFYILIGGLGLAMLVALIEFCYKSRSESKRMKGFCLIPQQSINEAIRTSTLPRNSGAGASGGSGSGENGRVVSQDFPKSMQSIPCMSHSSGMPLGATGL
UniProt Q9Z2W9, residues 23-888: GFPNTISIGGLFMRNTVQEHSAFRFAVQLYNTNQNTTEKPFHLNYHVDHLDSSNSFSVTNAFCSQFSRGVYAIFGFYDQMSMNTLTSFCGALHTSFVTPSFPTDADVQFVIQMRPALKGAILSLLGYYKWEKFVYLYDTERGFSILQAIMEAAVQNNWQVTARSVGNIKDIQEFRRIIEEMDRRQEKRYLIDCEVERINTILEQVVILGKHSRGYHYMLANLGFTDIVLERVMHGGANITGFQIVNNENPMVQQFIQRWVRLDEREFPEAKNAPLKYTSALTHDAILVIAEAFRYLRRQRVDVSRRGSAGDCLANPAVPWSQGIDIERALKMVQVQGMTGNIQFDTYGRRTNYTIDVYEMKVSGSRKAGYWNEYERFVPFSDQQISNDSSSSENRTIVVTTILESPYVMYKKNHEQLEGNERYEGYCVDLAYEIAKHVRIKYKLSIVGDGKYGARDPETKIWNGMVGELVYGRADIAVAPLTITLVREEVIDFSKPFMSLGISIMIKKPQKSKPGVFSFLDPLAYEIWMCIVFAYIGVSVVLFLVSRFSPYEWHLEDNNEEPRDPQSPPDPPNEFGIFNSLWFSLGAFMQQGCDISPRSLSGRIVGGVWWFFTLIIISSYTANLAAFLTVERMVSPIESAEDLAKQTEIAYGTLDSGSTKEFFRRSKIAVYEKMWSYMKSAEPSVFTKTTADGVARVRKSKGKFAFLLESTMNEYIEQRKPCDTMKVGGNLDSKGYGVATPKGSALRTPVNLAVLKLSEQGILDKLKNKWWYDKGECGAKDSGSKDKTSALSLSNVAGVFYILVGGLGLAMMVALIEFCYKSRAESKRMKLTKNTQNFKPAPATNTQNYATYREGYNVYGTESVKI

No constants are given. Whether binding was seen depends on the method and setting. In cells and extracts the contact can be indirect. Some binding calls cover weakened binding; strength is not graded here. For part of these data: Where a sequence is shown, tags or fusion partners need not be part of it.

Experiment [1] addresses T1, FLAG-tagged Prrt2 (mouse, wild type) (mouse) (UniProt E9PUL5).
T1 sequence: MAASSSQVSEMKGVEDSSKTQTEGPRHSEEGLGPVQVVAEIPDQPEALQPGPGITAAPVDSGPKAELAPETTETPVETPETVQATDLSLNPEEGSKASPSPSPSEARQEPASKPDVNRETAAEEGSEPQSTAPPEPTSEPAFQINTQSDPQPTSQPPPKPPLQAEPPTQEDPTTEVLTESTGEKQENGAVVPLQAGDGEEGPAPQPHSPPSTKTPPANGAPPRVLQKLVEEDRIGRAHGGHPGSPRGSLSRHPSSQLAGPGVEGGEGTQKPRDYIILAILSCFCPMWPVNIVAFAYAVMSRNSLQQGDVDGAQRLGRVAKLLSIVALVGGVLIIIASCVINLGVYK
In words: co-IP; lysates of HEK 293T cells co-transfected with HA-tagged GluA1, GluA2 or GluA3 and FLAG-tagged Prrt2; precipitated with the FLAG antibody and Protein G beads, 4°C, Western blot. (In western blotting, separated proteins are transferred to a membrane and probed.)

Experiment [2] has as its target AMPA receptor subunit GluA1, endogenous in mouse hippocampus (mouse (endogenous in adult mouse hippocampus)) (UniProt P23818). The experiment is described as follows: co-IP; homogenates from the adult mouse hippocampus; precipitated with GluA1, GluA2 or GluA3 antibodies, Western blot for Prrt2.
Experiment [3] concerns the target AMPA receptor subunit GluA3, endogenous in mouse hippocampus (mouse (endogenous in adult mouse hippocampus)) (UniProt Q9Z2W9). The experiment is described as above.

Turning to “HA-tagged GluA3 (mouse) (from UniProt Q9Z2W9 23-888) (receptor)”, in experiment [1], the binding result is given as “no binding”.

B1: Proline-rich transmembrane protein 2 (Prrt2), endogenous in mouse hippocampus (protein, UniProt E9PUL5 1-346)
chain: MAASSSQVSEMKGVEDSSKTQTEGPRHSEEGLGPVQVVAEIPDQPEALQPGPGITAAPVDSGPKAELAPETTETPVETPETVQATDLSLNPEEGSKASPSPSPSEARQEPASKPDVNRETAAEEGSEPQSTAPPEPTSEPAFQINTQSDPQPTSQPPPKPPLQAEPPTQEDPTTEVLTESTGEKQENGAVVPLQAGDGEEGPAPQPHSPPSTKTPPANGAPPRVLQKLVEEDRIGRAHGGHPGSPRGSLSRHPSSQLAGPGVEGGEGTQKPRDYIILAILSCFCPMWPVNIVAFAYAVMSRNSLQQGDVDGAQRLGRVAKLLSIVALVGGVLIIIASCVINLGVYK
As to B1, the binding result is “binds” in experiment [2] and “no binding” in experiment [3].
